Source: patent US8980908B2, “Non-peptidyl, potent, and selective mu opioid receptor antagonists and their use in treating opioid addiction and opioid induced constipation” (Virginia Commonwealth University, priority 2009, dated 2015)

Test system: mice
Assay: Warm-water tail immersion assay, antinociceptive effects (Example 5)
Set-up: species or system mouse (Swiss-Webster)
Conditions: mouse, in vivo

Structure (SMILES): CN1CC[C@]23c4c5ccc(O)c4O[C@H]2[C@@H](O)C=C[C@H]3[C@H]1C5.O=S(=O)(O)O [morphine, Morphine sulfate]
- ED50 (antinociception): 3.24 (2.44-4.31) mg/kg (95% CL)
